Data published in patent US20250115889A1 (DENTERIC, published 2025).
Results are given in words; binding and its absence hold for the method and conditions named. Some entries that bind do so weakly or less than the wild type.

What was measured:
[1] = biological target: rABM21-PSPYQ (Porphyromonas gingivalis W50) (UniProt Q51817); assay: Native PAGE without DTT; self-association (ability to form multimers)
[2] = biological target: rABM21-PNPFA (Porphyromonas gingivalis W50) (UniProt Q51817); assay: as above

Row | Substance | binding [1] | binding [2]
1 | rABM21-PSPYQ (from UniProt Q51817 885-970) | binds | –
2 | rABM21-PNPFA (from UniProt Q51817 885-970) | – | binds
